Source: paper PMC2956978, “Production, Purification, and Characterization of Polygalacturonase from Mucor circinelloides ITCC 6025” (Enzyme Research, 2010)

tested on: T1, polygalacturonase (PGase); assay: reducing sugar release from polygalacturonic acid (Somogyi); assay type: biochemical, Mucor circinelloides; settings: 50 µM; residual activity versus control 100%; 50 mM citrate buffer pH 5.4; 5 min preincubation at 37 °C; substrate polygalacturonic acid
T1 construct: native extracellular enzyme purified from culture filtrate (ethanol precipitation, Sephacryl S-100); 66 kDa on SDS-PAGE

SMILES | Relative Activity (%)
O=C(O)/C=C/c1ccccc1 [Cinnamic Acid] | 44.0
O=C(/C=C/c1ccc(O)c(O)c1)O[C@@H]1C[C@](O)(C(=O)O)C[C@@H](O)[C@H]1O [Chlorogenic Acid] | 58.0
O=C(O)c1cc([N+](=O)[O-])cc([N+](=O)[O-])c1O [2,4-dinitrosalicylic Acid] | 51.1
O=C(O)/C=C/c1ccc(O)cc1 [p-Coumaric Acid] | 54.0
COc1cc(/C=C/C(=O)O)ccc1O [Ferulic Acid] | 56.0
